Test results from PMC10958106.
Results are given in words; binding and its absence hold for the method and conditions named. In cells and extracts the contact can be indirect. Some binding calls cover weakened binding; strength is not graded here.

Protein sequences, listed by entry. Tags and fused reporters are not part of them.
UniProt Q96CW1: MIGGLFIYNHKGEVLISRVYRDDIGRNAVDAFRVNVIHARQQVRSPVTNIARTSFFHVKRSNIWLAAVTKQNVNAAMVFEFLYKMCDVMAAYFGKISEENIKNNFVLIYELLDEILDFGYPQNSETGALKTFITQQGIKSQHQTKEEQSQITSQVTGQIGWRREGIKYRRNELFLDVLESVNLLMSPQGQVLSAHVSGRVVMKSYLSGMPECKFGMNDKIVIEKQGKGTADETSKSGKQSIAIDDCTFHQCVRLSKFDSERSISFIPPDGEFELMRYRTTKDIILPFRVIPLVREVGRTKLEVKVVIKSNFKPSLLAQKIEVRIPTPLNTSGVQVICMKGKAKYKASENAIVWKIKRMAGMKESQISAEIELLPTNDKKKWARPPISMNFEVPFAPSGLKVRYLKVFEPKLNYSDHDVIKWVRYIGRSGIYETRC
UniProt P03129: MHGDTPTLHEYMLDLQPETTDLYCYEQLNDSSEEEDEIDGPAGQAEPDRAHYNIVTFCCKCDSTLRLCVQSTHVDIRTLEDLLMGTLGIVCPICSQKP

Biological target: AP2M1-HA (UniProt Q96CW1)
Test: co-IP; HEK293 cells co-transfected with the receptor and AP2M1-HA (or empty vector), with or without HPV-16 E7 Wt-FLAG or E7 Y25A-FLAG; extracts incubated with anti-HA beads 3 h at 4 °C; Western blot

For “HPV-16 E7Wt-FLAG (from UniProt P03129 1-98)”, the binding was “binds”.
